At least one structure is not confirmed: it was looked up by name or label, or the drawing left a doubt.
System: hair
Experiment: trial study of hair rinses, open-ended unblinded comparison
Format: in vivo

Compound: CN(C)CCO [DMAE, dimethylaminoethanol]
- overall hair manageability, softness, and shininess (hair rinses with 0.1% to 3% DMAE in a phospholipid base, a cationic hair conditioner base, or a nonionic shampoo, versus same products without active ingredients): out-performed the same hair care products without active ingredients
- effect on hair manageability, softness, and shininess in bleached hair (subjects with sun- and chlorine-bleached hair): more pronounced
